Among the test systems are OR1N2 clone 1505; OR1S1 clone 1455; OR1S2 I46T clone 1137; OR2A1 clone 1078; OR2A12 clone 1085; OR2A14 Indel clone 1540; OR2A14 clone 1083; OR2A2 F280L clone 1541; OR2A2 clone 1476; OR2A25 clone 1387; OR2A4 clone 1386; OR2A42 clone 1565; OR2A5 clone 1437; OR2A7 clone 1077; OR2A7 clone 1543; OR2AE1 I77T clone 1079; OR2AG1 clone 1112.
Experiment in all cases: odorant receptor activation (CRE luciferase / Renilla) (fold of no-odor wells); higher = more activation
Conditions in all cases: 100 µM

Assay [1] concerns OR1N2 W23R/V230G/T287M clone 1105.
The subject of assay [2] is OR1N2 W37R/V244G/T301M clone 1350.
The subject of assay [3] is OR1Q1 Q24R/I163M clone 1103.

Our source for the odorant receptor activation values is the odorant receptor screen of Mainland et al. (2015).

SMILES strings stand for the structures. Where “and” joins values, the source holds several entries; their conditions need not be identical. Identical values can stand only once. The list shows a part of the results. Single wells; the ratio to wells without odorant was worked out here, and repeats agree poorly.

Regarding `CCCC(=O)O` [butyric acid], the odorant receptor activation in assay [1] came to 1.38; in assay [2] it was 1.04; with OR1N2 clone 1505, 1.16; in [3], 1.29; with OR1S1 clone 1455 it was 1.49; in the assay with OR1S2 I46T clone 1137, 0.862. Besides, the odorant receptor activation is 0.981 in the assay with OR2A1 clone 1078; 1.29 in the assay on OR2A12 clone 1085; 1.07 in the assay on OR2A14 Indel clone 1540; 1.23 in the assay with OR2A14 clone 1083; 0.97 in the assay with OR2A2 F280L clone 1541; 1.29 in the assay on OR2A2 clone 1476. The odorant receptor activation in the assay on OR2A25 clone 1387 amounted to 0.316; in the assay with OR2A4 clone 1386 it was 0.23; with OR2A42 clone 1565 it was 0.818; in the assay on OR2A5 clone 1437 it was 0.331; with OR2A7 clone 1077, 0.861; with OR2A7 clone 1543, 0.735. In addition, the odorant receptor activation came to 1.2 in the assay on OR2AE1 I77T clone 1079 and 0.851 with OR2AG1 clone 1112.

`CCCCCCOC(=O)CCC` [hexyl butyrate]: the odorant receptor activation was 0.959 in [1]; 1.06 and 0.88 in assay [2]; 0.873 and 0.834 in the assay on OR1N2 clone 1505; 0.802 in [3]; 1.04 in the assay with OR1S1 clone 1455; 1.08 in the assay on OR1S2 I46T clone 1137. The odorant receptor activation is 1.24 with OR2A1 clone 1078; 0.825 in the assay with OR2A12 clone 1085; 1.2 and 1.16 in the assay with OR2A14 Indel clone 1540; 0.333 with OR2A14 clone 1083; 1.08 and 1.12 in the assay with OR2A2 F280L clone 1541; 0.846 and 0.819 with OR2A2 clone 1476. Besides, the odorant receptor activation in the assay with OR2A25 clone 1387 is 0.814; in the assay with OR2A4 clone 1386, 0.783; in the assay on OR2A42 clone 1565 it was 0.954; in the assay on OR2A5 clone 1437, 0.886; in the assay with OR2A7 clone 1077 it was 0.918; in the assay on OR2A7 clone 1543, 0.977 and 0.743. Also, the odorant receptor activation with OR2AE1 I77T clone 1079 stood at 0.708; in the assay on OR2AG1 clone 1112 it was 0.867.

Regarding `CC(C)(O)CCCC1=CCC(C=O)CC1` (stereo not drawn) [lyral], the results for the odorant receptor activation with OR1S1 clone 1455 and in the assay with OR2A42 clone 1565 were 1.41 and 0.947, respectively.

For `CC1CCC(C(C)C)C(O)C1` (single isomer, unassigned; (+)) [(+)-menthol], the odorant receptor activation in assay [1] worked out at 3.67; in [2] it was 1.24; with OR1N2 clone 1505, 1.15; in [3], 18.3; in the assay on OR1S1 clone 1455, 0.772; in the assay with OR1S2 I46T clone 1137, 1.38. For the same compound, the odorant receptor activation amounted to 4 in the assay with OR2A1 clone 1078; 18.4 with OR2A12 clone 1085; 0.883 in the assay on OR2A14 Indel clone 1540; 3.33 with OR2A14 clone 1083; 1.22 in the assay on OR2A2 F280L clone 1541; 1.11 in the assay on OR2A2 clone 1476. Also, the odorant receptor activation in the assay on OR2A25 clone 1387 was found to be 1.02; in the assay with OR2A4 clone 1386 it was 0.82; in the assay on OR2A42 clone 1565 it was 0.53; with OR2A5 clone 1437, 0.623; in the assay on OR2A7 clone 1077 it was 3.89; in the assay with OR2A7 clone 1543, 0.932. The figures for the odorant receptor activation in the assay on OR2AE1 I77T clone 1079 and with OR2AG1 clone 1112 were 22.3 and 9.35, respectively.

As for `C=CCc1ccc(O)c(OC)c1` [eugenol], the odorant receptor activation in [1] is 2.27 and 1.27; in assay [2] it was 2.38 and 0.968 and 1.4; in the assay with OR1N2 clone 1505 it was 2.53 and 0.943 and 1.03; in the assay on OR1S1 clone 1455, 1.1; with OR1S2 I46T clone 1137, 2.65 and 1.62; with OR2A1 clone 1078 it was 1.39 and 1.27. Moreover, the odorant receptor activation in the assay with OR2A12 clone 1085 was 2.67 and 1.26; in the assay on OR2A14 Indel clone 1540, 1.46; in the assay with OR2A14 clone 1083, 1.59 and 1.51; in the assay on OR2A2 F280L clone 1541, 1.2; with OR2A2 clone 1476, 1.38 and 1.04 and 1.5; with OR2A25 clone 1387 it was 1.8 and 1.5. Also, the odorant receptor activation with OR2A4 clone 1386 is 1.14 and 1.56; with OR2A42 clone 1565, 1.03; in the assay on OR2A5 clone 1437 it was 1.57 and 1.49; in the assay on OR2A7 clone 1077, 0.675 and 1.32; in the assay with OR2A7 clone 1543 it was 1.16; with OR2AE1 I77T clone 1079, 1.13 and 1.49. Further, in the assay with OR2AG1 clone 1112, the odorant receptor activation was 0.975 and 1.38.

Consider `CCCCCC(=O)O` [caproic acid], for which the odorant receptor activation in assay [1] stood at 1.26; in [2], 0.893; with OR1N2 clone 1505, 1; in [3], 1.18; with OR1S1 clone 1455, 1.14; in the assay with OR1S2 I46T clone 1137, 1.07. Besides, the odorant receptor activation with OR2A1 clone 1078 came out at 1.01; in the assay with OR2A12 clone 1085, 1.34; in the assay with OR2A14 Indel clone 1540 it was 0.954; in the assay on OR2A14 clone 1083 it was 1.09; in the assay with OR2A2 F280L clone 1541, 0.852; in the assay with OR2A2 clone 1476, 0.9. Also, the odorant receptor activation in the assay on OR2A25 clone 1387 amounted to 0.233; with OR2A4 clone 1386 it was 0.181; in the assay on OR2A42 clone 1565, 0.634; in the assay with OR2A5 clone 1437, 0.266; with OR2A7 clone 1077, 0.949; with OR2A7 clone 1543, 0.629. Moreover, the odorant receptor activation turned out to be 0.885 with OR2AE1 I77T clone 1079 and 0.998 in the assay on OR2AG1 clone 1112.

Take `C=C(C)C1CCC2=CC(=O)CC(C)C2(C)C1` (stereo not drawn) [amyl laurate]: the figures for the odorant receptor activation with OR1S1 clone 1455 and in the assay with OR2A42 clone 1565 were 3.14 and 1.52, respectively.

In the case of `CC1=NC(C)SC1C` (stereo not drawn), the odorant receptor activation in [1] is 2.41; in assay [2], 1.14 and 1.04; in the assay on OR1N2 clone 1505, 1.2 and 1.01; in assay [3], 0.431; in the assay on OR1S2 I46T clone 1137, 0.689; in the assay on OR2A1 clone 1078, 1.22. In addition, the odorant receptor activation was 1.76 in the assay on OR2A12 clone 1085; 1.11 in the assay with OR2A14 clone 1083; 1.23 and 1 in the assay with OR2A2 clone 1476; 1.27 in the assay on OR2A25 clone 1387; 0.857 with OR2A4 clone 1386; 1.31 in the assay with OR2A5 clone 1437. The results for the odorant receptor activation with OR2A7 clone 1077, with OR2AE1 I77T clone 1079 and in the assay on OR2AG1 clone 1112 were 0.915, 1.12 and 0.668, respectively.

Consider `COc1cc(C)ccc1O` [2-methoxy-4-methylphenol], for which the odorant receptor activation worked out at 3.17 in assay [1]; 1.07 in assay [2]; 0.987 with OR1N2 clone 1505; 11.4 in [3]; 0.819 in the assay on OR1S1 clone 1455; 0.9 with OR1S2 I46T clone 1137. For the same compound, the odorant receptor activation with OR2A1 clone 1078 is 2.27; in the assay with OR2A12 clone 1085, 1.6; with OR2A14 Indel clone 1540, 0.97; in the assay with OR2A14 clone 1083 it was 1.35; in the assay with OR2A2 F280L clone 1541 it was 0.845; in the assay with OR2A2 clone 1476 it was 0.915. In addition, the odorant receptor activation in the assay with OR2A25 clone 1387 was 1.36; with OR2A4 clone 1386 it was 1.04; in the assay on OR2A42 clone 1565 it was 0.522; in the assay on OR2A5 clone 1437, 0.89; in the assay with OR2A7 clone 1077, 1.26; in the assay on OR2A7 clone 1543, 0.872. For the same compound, the odorant receptor activation in the assay with OR2AE1 I77T clone 1079 is 13.1; with OR2AG1 clone 1112, 5.96.
